Ends that are not written are not given here.
Assay: general procedure: Fmoc solid-phase peptide synthesis; Rink Amide MBHA or Wang resin; HBTU, HOBt, DIEA
Conditions: whole synthesis

| Substance | final HPLC purity |
| --- | --- |
| Ac-QQKFQFQFEQQ-NH2 | 92.0-97.5% |
| H-ISQAVHAAHAEINEAGR-OH | 91.6-95% |
| ISQAVHAAHAEINEAGRSGSGQQKFQFQFEQQ-NH2 (C-terminus assumed) | 96.2-98.0% |
